Measurements published in PMC9598925, “Synthetic Amphipathic β-Sheet Temporin-Derived Peptide with Dual Antibacterial and Anti-Inflammatory Activities” (Antibiotics, 2022).
Like-named read-outs stand apart in the source and are kept apart here. Non-standard residues stand in square brackets, D forms with d. Residues, ends and D or L forms follow the SMILES beside them. Nle = CCCC[C@H](N)C(=O)O

Columns and labels:
[1] = Membrane fluidity, Laurdan Generalized Polarization; details: PBS pH 7.4, unloaded LUVs −0.07 ± 0.01
[2] = as above; details: PBS pH 7.4, unloaded LUVs −0.18 ± 0.01
[3] = unloaded LUVs −0.07 ± 0.01, calculated previously ref 27, cited from earlier work
[4] = unloaded LUVs −0.18 ± 0.01, calculated previously ref 27, cited from earlier work

Molecule | GP Value ([1]; LUVs DOPG/DOPE/CL + 5 μM cmpd) | GP Value ([1]; LUVs DOPG/DOPE/CL + 30 μM cmpd) | GP Value ([2]; LUVs DOPG/CL + 5 μM cmpd) | GP Value ([2]; LUVs DOPG/CL + 30 μM cmpd) | GP Value ([3]; LUVs DOPG/DOPE/CL + 5 μM cmpd) | GP Value ([3]; LUVs DOPG/DOPE/CL + 30 μM cmpd) | GP Value ([4]; LUVs DOPG/CL + 5 μM cmpd) | GP Value ([4]; LUVs DOPG/CL + 30 μM cmpd)
CCCC[C@H](N)C(=O)N[C@@H](Cc1ccccc1)C(=O)N[C@H](C(=O)N1CCC[C@H]1C(=O)N[C@@H](Cc1c[nH]c2ccccc12)C(=O)N[C@@H](Cc1ccccc1)C(=O)N[C@@H](CO)C(=O)N[C@@H](CCCCN)C(=O)N[C@@H](Cc1ccccc1)C(=O)N[C@H](CC(C)C)C(=O)N[C@H](CCCCN)C(=O)N[C@@H](CCCNC(=N)N)C(=O)N[C@H](C(=O)N[C@@H](CC(C)C)C(N)=O)[C@@H](C)CC)C(C)C [[Nle^1, DLeu^9, DLys^10]TL] (H-[Nle]FVPWFSKF[dL][dK]RIL-NH2) | 0.05 ± 0.01 | 0.13 ± 0.03 | 0.03 ± 0.01 | 0.29 ± 0.03 | – | – | – | –
FVPWFSKFlkRIL [[DLeu^9, DLys^10]TL] | – | – | – | – | 0.09 ± 0.02 | 0.11 ± 0.02 | −0.06 ± 0.01 | 0.26 ± 0.02
